Values of other authors, collected in US20250375396A1 (priority 2016, published 2025).
Counter-ions that a name gives are not always drawn.

Details: conjugated acid amine

Q: Which “Equilibrium Constant of Acid Amine (pKa(acid amine))” value does the source give for `COc1cc2c(cc1OC)C(=O)C(CC1CCN(Cc3ccccc3)CC1)C2` (stereo not shown) [Donepezil HCl] here?
A: 8.6
